This passage reports AC50 results from PubChem BioAssay AID493014 (National Center for Advancing Translational Sciences (NCATS), 2011).

This is one part of the list. Shown are side measurements of this screen, not its main read-out; they come without a call. Compounds called inactive in the main read-out are mostly missing here. Words in brackets tell the shape of the fitted curve; partial curves, single points and poor fits give uncertain potencies.

The nature of this test: qHTS Assay to Find Inhibitors of Chronic Active B-Cell Receptor Signaling. The note with it: ABC-DLBCL IkBa-CBG/CBR reporter, luminescence ratio (green luciferase fused to IkBa over red control in TMD8 lymphoma cells), 4 h; measured here: CBR red luminescence, cell number. An outline of the steps: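 Doxycycline induced both beetle luciferases in TMD8 lymphoma cells; IKK-driven degradation limits the IkappaBalpha-fused green signal, while red luminescence normalises for cell number and nonspecific effects. Compounds tested up to 46 uM, 4 hrs.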
A word on the AC50: it is the midpoint of the concentration-response curve, whichever way the signal moves. As to `COc1ccccc1NC(=S)NC(NC(=O)C(C)C)C(Cl)(Cl)Cl` (configuration not stated), the concentration at half-maximal activity (AC50) is 35.5 µM [falling, single point].
As for `Cc1ccc2c(c1)[C@H]1[C@H](CO2)[C@H](c2ccccc2)[C@]2(C)C(=O)N(Cc3ccco3)CC(=O)N12`, the figure is 23.1 µM [falling, single point]; as for `COc1ccc(S(=O)(=O)N(CC(=O)NCc2ccco2)C2CCCCC2)cc1OC`, 35.5 µM [falling, single point].
As for `O=C(/C=C/c1ccc2c(c1)OCO2)NCCSCc1ccc(Cl)cc1Cl`, the figure is 35.5 µM [falling, single point].
To `Cc1nnnn1/C(=C\c1ccccc1)C(=O)OCC(=O)N1CC2(C)CC1CC(C)(C)C2` (configuration not stated) belongs 1.46 µM [falling, partial curve, poor fit].
Take `O=C(CCc1ccccc1)NNC(=O)c1ccccn1`: the AC50 is 35.5 µM [falling, single point].
As for `COc1cc(/C=N/NC(=O)C(=O)Nc2ccccn2)ccc1O`, the figure is 23.1 µM [falling, single point].
Regarding `CCn1c(SCC(=O)Nc2nc(-c3ccc(C)cc3)cs2)nnc1-c1ccccc1O`, the AC50 was 0.0731 µM [falling, partial curve, poor fit].
To `COc1cccc(/C=N/NC(=O)CC(=O)NCCc2ccc(OC)c(OC)c2)c1` belongs 0.164 µM [rising, full curve, poor fit]; to `C/C(Cn1nnc([N+](=O)[O-])n1)=N\NC(=O)c1cccc(Cl)c1`, 11.2 µM [falling, partial curve]; to `CCc1cccc(NC(=O)CN(C)C2=NS(=O)(=O)c3ccccc32)c1`, 29.1 µM [rising, single point].
As for `CCOC(=O)C1CCN(S(=O)(=O)c2ccc3c(c2)NC(=O)C(C)S3)CC1` (configuration not stated), the figure is 28.2 µM [falling, single point]; as for `NC1=NC(=O)S/C1=C\c1ccc(O)cc1`, 20.6 µM [falling, single point]; as for `CCCN(CCC)c1ncnc2c1cnn2-c1ccc(OC)cc1`, 6.51 µM [rising, single point].
As for `O=C(Nc1c2c(nn1-c1ccc(Cl)cc1)CS(=O)(=O)C2)c1cccc(Cl)c1`, the figure is 11.2 µM [falling, partial curve]; as for `N=C1/C(=C/c2cccn2-c2cccc([N+](=O)[O-])c2)C(=O)N=C2SC=CN12`, 16.4 µM [rising, partial curve, poor fit]; as for `COc1cccc(OC)c1OCC(=O)Nc1ccc(S(=O)(=O)N2CCCC2)cc1`, 6.51 µM [falling, partial curve, poor fit].
